Assays:
[1] = Yield sooting index measurement in doped methane/air flame; settings: measured value; scale YSI-heptane=36, YSI-toluene=170.9
[2] = Cetane number (ICN) measured in an AFIDA, ASTM D8183; settings: measured value (outside parentheses)

## CCCCOC(CCC)CCC [4-butoxyheptane]
[1]
  Yield Sooting Index: 58
[2]
  Cetane Number: 80.0
[2]; listed as drawing 5
  Cetane Number: 80

## CCCCCCOC(CCC)CCC [4-hexoxyheptane]
[1]
  Yield Sooting Index: 75

## CCCCCC(CCCCC)OCC [6-ethoxyundecane]
[1]
  Yield Sooting Index: 70
